In patent US12729225B2, “Non-canonical SWI/SNF complex and uses thereof” (Dana-Farber Cancer Institute, Inc., priority 2018, dated 2026):

B1: NSUN5 (protein, UniProt Q96P11 2-429, looked up)
28S rRNA …: GLYAAAAGVLAGVESRQGSIKGLVYSSNFQNVKQLYALVCETQRYSAVLDAVIASAGLLRAEKKLRPHLAKVLVYELLLGKGFRGGGGRWKALLGRHQARLKAELARLKVHRGVSRNEDLLEVGSRPGPASQLPRFVRVNTLKTCSDDVVDYFKRQGFSYQGRASSLDDLRALKGKHFLLDPLMPELLVFPAQTDLHEHPLYRAGHLILQDRASCLPAMLLDPPPGSHVIDACAAPGNKTSHLAALLKNQGKIFAFDLDAKRLASMATLLARAGVSCCELAEEDFLAVSPSDPRYHEVHYILLDPSCSGSGMPSRQLEEPGAGTPSPVRLHALAGFQQRALCHALTFPSLQRLVYSTCSLCQEENEDVVRDALQQNPGAFRLAPALPAWPHRGLSTFPGAEHCLRASPETTLSSGFFVAVIERVEVPR
B2: ACTL6B (protein)
chain: MSGGVYGGDEVGALVFDIGSFSVRAGYAGEDCPKADFPTTVGLLAAEEGGGLELEGDKEKKGKIFHIDTNALHVPRDGAEVMSPLKNGMIEDWECFRAILDHTYSKHVKSEPNLHPVLMSEAPWNTRAKREKLTELMFEQYNIPAFFLCKTAVLTAFANGRSTGLVLDSGATHTTAIPVHDGYVLQQGIVKSPLAGDFISMQCRELFQEMAIDIIPPYMIAAKEPVREGAPPNWKKKEKLPQVSKSWHNYMCNEVIQDFQASVLQVSDSPYDEQVAAQMPTVHYEMPNGYNTDYGAERLRIPEGLFDPSNVKGLSGNTMLGVGHVVTTSIGMCDIDIRPGLYGSVIVTGGNTLLQGFTDRLNRELSQKTPPSMRLKLIASNSTMERKFSPWIGGSILASLGTFQQMWISKQEYEEGGKQCVERKCP
B3: NKAPL (protein, UniProt Q5M9Q1 1-402, looked up)
NKAP-like protein: MPPVSRSSYSEDIVGSRRRRRSSSGSPPSPQSRCSSWDGCSRSHSRGREGLRPPWSELDVGALYPFSRSGSRGRLPRFRNYAFASSWSTSYSGYRYHRHCYAEERQSAEDYEKEESHRQRRLKERERIGELGAPEVWGPSPKFPQLDSDEHTPVEDEEEVTHQKSSSSDSNSEEHRKKKTSRSRNKKKRKNKSSKRKHRKYSDSDSNSESDTNSDSDDDKKRVKAKKKKKKKKHKTKKKKNKKTKKESSDSSCKDSEEDLSEATWMEQPNVADTMDLIGPEAPIIHTSQDEKPLKYGHALLPGEGAAMAEYVKAGKRIPRRGEIGLTSEEIGSFECSGYVMSGSRHRRMEAVRLRKENQIYSADEKRALASFNQEERRKRESKILASFREMVHKKTKEKDDK
B4: CHP1 (protein, UniProt Q99653 2-195, looked up)
Calcineurin B homologous …: GSRASTLLRDEELEEIKKETGFSHSQITRLYSRFTSLDKGENGTLSREDFQRIPELAINPLGDRIINAFFPEGEDQVNFRGFMRTLAHFRPIEDNEKSKDVNGPEPLNSRSNKLHFAFRLYDLDKDEKISRDELLQVLRMMVGVNISDEQLGSIADRTIQEADQDGDSAISFTEFVKVLEKVDVEQKMSIRFLH
B5: VDAC3 (protein, UniProt Q9Y277 2-283, looked up)
Non-selective voltage-gated …: CNTPTYCDLGKAAKDVFNKGYGFGMVKIDLKTKSCSGVEFSTSGHAYTDTGKASGNLETKYKVCNYGLTFTQKWNTDNTLGTEISWENKLAEGLKLTLDTIFVPNTGKKSGKLKASYKRDCFSVGSNVDIDFSGPTIYGWAVLAFEGWLAGYQMSFDTAKSKLSQNNFALGYKAADFQLHTHVNDGTEFGGSIYQKVNEKIETSINLAWTAGSNNTRFGIAAKYMLDCRTSLSAKVNNASLIGLGYTQTLRPGVKLTLSALIDGKNFSAGGHKVGLGFELEA
B6: ABCD3 (protein, UniProt P28288 1-659, looked up)
ATP-binding cassette …: MAAFSKYLTARNSSLAGAAFLLLCLLHKRRRALGLHGKKSGKPPLQNNEKEGKKERAVVDKVFFSRLIQILKIMVPRTFCKETGYLVLIAVMLVSRTYCDVWMIQNGTLIESGIIGRSRKDFKRYLLNFIAAMPLISLVNNFLKYGLNELKLCFRVRLTKYLYEEYLQAFTYYKMGNLDNRIANPDQLLTQDVEKFCNSVVDLYSNLSKPFLDIVLYIFKLTSAIGAQGPASMMAYLVVSGLFLTRLRRPIGKMTITEQKYEGEYRYVNSRLITNSEEIAFYNGNKREKQTVHSVFRKLVEHLHNFILFRFSMGFIDSIIAKYLATVVGYLVVSRPFLDLSHPRHLKSTHSELLEDYYQSGRMLLRMSQALGRIVLAGREMTRLAGFTARITELMQVLKDLNHGKYERTMVSQQEKGIEGVQVIPLIPGAGEIIIADNIIKFDHVPLATPNGDVLIRDLNFEVRSGANVLICGPNGCGKSSLFRVLGELWPLFGGRLTKPERGKLFYVPQRPYMTLGTLRDQVIYPDGREDQKRKGISDLVLKEYLDNVQLGHILEREGGWDSVQDWMDVLSGGEKQRMAMARLFYHKPQFAILDECTSAVSVDVEGYIYSHCRKVGITLFTVSHRKSLWKHHEYYLHMDGRGNYEFKQITEDTVEFGS
B7: FECH (protein, UniProt P22830 55-423, looked up)
Ferrochelatase, mitochondrial: GAKPQVQPQKRKPKTGILMLNMGGPETLGDVHDFLLRLFLDRDLMTLPIQNKLAPFIAKRRTPKIQEQYRRIGGGSPIKIWTSKQGEGMVKLLDELSPNTAPHKYYIGFRYVHPLTEEAIEEMERDGLERAIAFTQYPQYSCSTTGSSLNAIYRYYNQVGRKPTMKWSTIDRWPTHHLLIQCFADHILKELDHFPLEKRSEVVILFSAHSLPMSVVNRGDPYPQEVSATVQKVMERLEYCNPYRLVWQSKVGPMPWLGPQTDESIKGLCERGRKNILLVPIAFTSDHIETLYELDIEYSQVLAKECGVENIRRAESLNGNPLFSKALADLVHSHIQSNELCSKQLTLSCPLCVNPVCRETKSFFTSQQL
B8: HLTF (protein, UniProt Q14527 1-1009, looked up)
Helicase-like transcription …: MSWMFKRDPVWKYLQTVQYGVHGNFPRLSYPTFFPRFEFQDVIPPDDFLTSDEEVDSVLFGSLRGHVVGLRYYTGVVNNNEMVALQRDPNNPYDKNAIKVNNVNGNQVGHLKKELAGALAYIMDNKLAQIEGVVPFGANNAFTMPLHMTFWGKEENRKAVSDQLKKHGFKLGPAPKTLGFNLESGWGSGRAGPSYSMPVHAAVQMTTEQLKTEFDKLFEDLKEDDKTHEMEPAEAIETPLLPHQKQALAWMVSRENSKELPPFWEQRNDLYYNTITNFSEKDRPENVHGGILADDMGLGKTLTAIAVILTNFHDGRPLPIERVKKNLLKKEYNVNDDSMKLGGNNTSEKADGLSKDASRCSEQPSISDIKEKSKFRMSELSSSRPKRRKTAVQYIESSDSEEIETSELPQKMKGKLKNVQSETKGRAKAGSSKVIEDVAFACALTSSVPTTKKKMLKKGACAVEGSKKTDVEERPRTTLIICPLSVLSNWIDQFGQHIKSDVHLNFYVYYGPDRIREPALLSKQDIVLTTYNILTHDYGTKGDSPLHSIRWLRVILDEGHAIRNPNAQQTKAVLDLESERRWVLTGTPIQNSLKDLWSLLSFLKLKPFIDREWWHRTIQRPVTMGDEGGLRRLQSLIKNITLRRTKTSKIKGKPVLELPERKVFIQHITLSDEERKIYQSVKNEGRATIGRYFNEGTVLAHYADVLGLLLRLRQICCHTYLLTNAVSSNGPSGNDTPEELRKKLIRKMKLILSSGSDEECAICLDSLTVPVITHCAHVFCKPCICQVIQNEQPHAKCPLCRNDIHEDNLLECPPEELARDSEKKSDMEWTSSSKINALMHALTDLRKKNPNIKSLVVSQFTTFLSLIEIPLKASGFVFTRLDGSMAQKKRVESIQCFQNTEAGSPTIMLLSLKAGGVGLNLSAASRVFLMDPAWNPAAEDQCFDRCHRLGQKQEVIITKFIVKDSVEENMLKIQNKKRELAAGAFGTKKPNADEMKQAKINEIRTLIDL
B9: CPSF2 (protein, UniProt Q9P2I0 1-782, looked up)
Cleavage and polyadenylation …: MTSIIKLTTLSGVQEESALCYLLQVDEFRFLLDCGWDEHFSMDIIDSLRKHVHQIDAVLLSHPDPLHLGALPYAVGKLGLNCAIYATIPVYKMGQMFMYDLYQSRHNTEDFTLFTLDDVDAAFDKIQQLKFSQIVNLKGKGHGLSITPLPAGHMIGGTIWKIVKDGEEEIVYAVDFNHKREIHLNGCSLEMLSRPSLLITDSFNATYVQPRRKQRDEQLLTNVLETLRGDGNVLIAVDTAGRVLELAQLLDQIWRTKDAGLGVYSLALLNNVSYNVVEFSKSQVEWMSDKLMRCFEDKRNNPFQFRHLSLCHGLSDLARVPSPKVVLASQPDLECGFSRDLFIQWCQDPKNSIILTYRTTPGTLARFLIDNPSEKITEIELRKRVKLEGKELEEYLEKEKLKKEAAKKLEQSKEADIDSSDESDIEEDIDQPSAHKTKHDLMMKGEGSRKGSFFKQAKKSYPMFPAPEERIKWDEYGEIIKPEDFLVPELQATEEEKSKLESGLTNGDEPMDQDLSDVPTKCISTTESIEIKARVTYIDYEGRSDGDSIKKIINQMKPRQLIIVHGPPEASQDLAECCRAFGGKDIKVYMPKLHETVDATSETHIYQVRLKDSLVSSLQFCKAKDAELAWIDGVLDMRVSKVDTGVILEEGELKDDGEDSEMQVEAPSDSSVIAQQKAMKSLFGDDEKETGEESEIIPTLEPLPPHEVPGHQSVFMNEPRLSDFKQVLLREGIQAEFVGGVLVCNNQVAVRRTETGRIGLEGCLCQDFYRIRDLLYEQYAIV
B10: ORC3 (protein, UniProt Q9UBD5 1-711, looked up)
Origin recognition complex …: MATSSMSKGCFVFKPNSKKRKISLPIEDYFNKGKNEPEDSKLRFETYQLIWQQMKSENERLQEELNKNLFDNLIEFLQKSHSGFQKNSRDLGGQIKLREIPTAALVLGVNVTDHDLTFGSLTEALQNNVTPYVVSLQAKDCPDMKHFLQKLISQLMDCCVDIKSKEEESVHVTQRKTHYSMDSLSSWYMTVTQKTDPKMLSKKRTTSSQWQSPPVVVILKDMESFATKVLQDFIIISSQHLHEFPLILIFGIATSPIIIHRLLPHAVSSLLCIELFQSLSCKEHLTTVLDKLLLTTQFPFKINEKVLQVLTNIFLYHDFSVQNFIKGLQLSLLEHFYSQPLSVLCCNLPEAKRRINFLSNNQCENIRRLPSFRRYVEKQASEKQVALLTNERYLKEETQLLLENLHVYHMNYFLVLRCLHKFTSSLPKYPLGRQIRELYCTCLEKNIWDSEEYASVLQLLRMLAKDELMTILEKCFKVFKSYCENHLGSTAKRIEEFLAQFQSLDETKEEEDASGSQPKGLQKTDLYHLQKSLLEMKELRRSKKQTKFEVLRENVVNFIDCLVREYLLPPETQPLHEVVYFSAAHALREHLNAAPRIALHTALNNPYYYLKNEALKSEEGCIPNIAPDICIAYKLHLECSRLINLVDWSEAFATVVTAAEKMDANSATSEEMNEIIHARFIRAVSELELLGFIKPTKQKTDHVARLTWGGC

Tested on: mSWI/SNF complexes
Assay: mSWI/SNF complex purification with HA-tagged baits and mass spectrometry (peptide counts)
Parameters: species or system human
[1] = 293_HA-BRD7 bait purification, mass spectrometry, total peptide count per identified protein
[2] = 293_HA-BRD7 bait purification, mass spectrometry, unique peptide count per identified protein

Molecule | Total [1] | Unique [2] | Total (293_HA-BRD7: HA-BRD7 bait purification, total peptide count per co-purified protein) | Unique (293_HA-BRD7: HA-BRD7 bait purification, unique peptide count per co-purified protein)
B1 | 1 | 1 |  | 
B2 | 1 | 1 |  | 
B3 | 1 | 1 |  | 
B4 | 1 | 1 |  | 
B5 | 1 | 1 |  | 
B6 | 1 | 1 |  | 
B7 | 1 | 1 |  | 
B8 | 1 | 1 |  | 
B9 |  |  | 14 | 13
B10 | 1 | 1 |  | 
